Taken from: PubChem BioAssay AID504793 (Drosophila RNAi Screening Center, 2011)

Test: 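Knock-downs allowing continued mitosis even though DNA is damaged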 (primary screen)
Cell system: Drosophila S2R+ cells
Reagents: long dsRNA against Drosophila genes, about 0.25 µg dsRNA per well
Time to read-out: 4 days of dsRNA, then 4 hours of drug before read-out
Treatment: doxorubicin 0.5 µM for 4 hours to cause double-strand breaks, in cells also given a low, harmless dose of dsRNA against nbs to sensitise the assay
Measured: 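Per-well count of mitotic cells stained for phospho-histone H3 after doxorubicin exposure, used as mitotic index; counts are raw and not normalised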
Scale: mitotic cells: higher = more cells in mitosis, weaker G2 arrest
Rule for the call: 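Genes are called active only when high mitotic counts were reproduced with independent dsRNAs and mitosis was checked for delay without damage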
Calls: active = confirmed in follow-up tests; inactive = not confirmed
In all, the deposit lists about 23,000 reagents; shown is an unselected part of those that have a named target and a result. Over the whole deposit, 62 (0.27%) got an active call. 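Calls come from follow-up tests whose scores are not deposited, so confirmed genes may have low counts here; counts are not normalised per plate.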 The raw values are shown without normalisation. The numbers tell different reagents against one gene apart. Names joined by + are all predicted targets of the reagent.

| target gene | reagent no. | mitotic cells, replicate 1 | outcome |
| --- | --- | --- | --- |
| CG15760 | 1 | 20 | inactive |
| CG15760 | 2 | 3 | inactive |
| Galphas | 1 | 5 | inactive |
| ATPsynbeta | 1 | 7 | inactive |
| CG15333 | 1 | 11 | inactive |
| CG15333 | 2 | 8 | inactive |
| Sytalpha | 1 | 7 | inactive |
| CG10469 | 1 | 5 | inactive |
| CG10469 | 2 | 12 | inactive |
| CG3176 + CR18166 + CG32817 | 1 | 14 | inactive |
| CG3176 + CR18166 + CG32817 | 2 | 11 | inactive |
| CG3176 + CR18166 + CG32817 | 3 | 6 | inactive |
| CG3176 + CR18166 + CG32817 | 4 | 7 | inactive |
| Dhc64C | 1 | 60 | inactive |
| Dhc64C | 2 | 128 | inactive |
| Zif | 1 | 7 | inactive |
| Argk1 | 1 | 4 | inactive |
| Argk1 | 2 | 4 | inactive |
| Argk1 | 3 | 12 | inactive |
| Argk1 | 4 | 2 | inactive |
| GNBP-like3 | 1 | 4 | inactive |
| CG10357 | 1 | 6 | inactive |
| CG12069 | 1 | 9 | inactive |
| CG12069 | 2 | 4 | inactive |
| CG6867 | 1 | 9 | inactive |
| CG6867 | 2 | 9 | inactive |
| dup | 1 | 22 | inactive |
| CG10991 (retired record) | 1 | 6 | inactive |
| PHDP | 1 | 6 | inactive |
| Atf3 | 1 | 8 | inactive |
| CG5909 | 1 | 10 | inactive |
| CG5909 | 2 | 13 | inactive |
| CG15145 | 1 | 2 | inactive |
| CG15145 | 2 | 3 | inactive |
| CG7402 | 1 | 8 | inactive |
| CG31729 | 1 | 3 | inactive |
| CG31729 | 2 | 5 | inactive |
| CG31729 | 3 | 2 | inactive |
| aft | 1 | 9 | inactive |
| CG31226 | 1 | 2 | inactive |
| CG8851 | 1 | 3 | inactive |
| CG8851 | 2 | 3 | inactive |
| fd102C | 1 | 8 | inactive |
| fd102C | 2 | 6 | inactive |
| TwdlV | 1 | 8 | inactive |
| CG17085 (retired record) | 1 | 1 | inactive |
| CG17085 (retired record) | 2 | 4 | inactive |
| CG17085 (retired record) | 3 | 5 | inactive |
| Mal-B2 | 1 | 5 | inactive |
| CG11293 (retired record) | 1 | 4 | inactive |
| CG5377 | 1 | 5 | inactive |
| CG5377 | 2 | 4 | inactive |
| CG7778 | 1 | 5 | inactive |
| CG7778 | 2 | 5 | inactive |
| Hsp70Aa + Hsp70Bb + Hsp70Ba + 3 more | 1 | 9 | inactive |
| ng4 | 1 | 8 | inactive |
| HP5 | 1 | 2 | inactive |
| HP5 | 2 | 4 | inactive |
| CG31855 | 1 | 6 | inactive |
| CG31855 | 2 | 7 | inactive |
| Gr2a | 1 | 11 | inactive |
| whd | 1 | 4 | inactive |
| cag | 1 | 3 | inactive |
| cag | 2 | 6 | inactive |
| Nap1 | 1 | 7 | inactive |
| Mrp4 | 1 | 3 | inactive |
| Mrp4 | 2 | 6 | inactive |
| CG15283 | 1 | 6 | inactive |
| GstE11 | 1 | 3 | inactive |
| CG2926 | 1 | 1 | inactive |
| Hs2st | 1 | 6 | inactive |
| CG33060 | 1 | 2 | inactive |
| slou | 1 | 15 | inactive |
| slou | 2 | 11 | inactive |
| cd | 1 | 7 | inactive |

Quoted from the listing for reference:
| target gene | reagent no. | mitotic cells, replicate 1 | outcome |
| --- | --- | --- | --- |
| Dhc64C | 1 | 60 | inactive |
| Dhc64C | 2 | 128 | inactive |
| Zif | 1 | 7 | inactive |
| Argk1 | 1 | 4 | inactive |
| Argk1 | 2 | 4 | inactive |
| Argk1 | 3 | 12 | inactive |
| Argk1 | 4 | 2 | inactive |
| GNBP-like3 | 1 | 4 | inactive |
| CG10357 | 1 | 6 | inactive |
| CG12069 | 1 | 9 | inactive |
| CG12069 | 2 | 4 | inactive |
| CG6867 | 1 | 9 | inactive |
